Reference: patent US20100009957A1, “NOVEL INHIBITORS OF BETA-LACTAMASE” (priority 2006, published 2010)
Some results were stated once for a whole list of compounds, not compound by compound.

Protein sequences, listed by entry. Tags and fused reporters are not part of them. Residues count along the entry.
UniProt P24735, 27-397: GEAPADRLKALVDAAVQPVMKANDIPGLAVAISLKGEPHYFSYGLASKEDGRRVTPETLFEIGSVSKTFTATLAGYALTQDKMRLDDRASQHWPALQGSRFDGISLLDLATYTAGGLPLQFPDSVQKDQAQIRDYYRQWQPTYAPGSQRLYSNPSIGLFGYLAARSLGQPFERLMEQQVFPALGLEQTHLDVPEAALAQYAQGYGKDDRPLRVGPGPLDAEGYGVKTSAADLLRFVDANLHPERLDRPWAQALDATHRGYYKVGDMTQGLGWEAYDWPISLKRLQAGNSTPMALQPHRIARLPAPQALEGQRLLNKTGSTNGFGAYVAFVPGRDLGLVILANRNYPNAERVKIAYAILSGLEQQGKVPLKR

Tests used:
AmpC (P. aeruginosa.) = AmpC (P. aeruginosa.) (Pseudomonas aeruginosa, UniProt P24735); format: biochemical; settings: summary statement; read-out: IC50 values, inhibition of Class C β-lactamase
Protocol: The Class C enzyme activities were measured in the presence of the test inhibitor in spectrophotometric assay against the commercially available substrate, nitrocefin. The enzyme AmpC (P. aeruginosa.), and the substrate, were dissolved in 100 mM KH2PO4 buffer (pH 7). The buffer also contains 0.005% BSA. The test inhibitor was dissolved in DMSO and diluted 1:20 in the assay, resulting in a final concentration range of 50 μM to 0.0002 μM. In a 96-well microplate, the test inhibitor was incubated with the beta-lactamase enzyme for 40 minutes at ambient temperature, the substrate solution was added, and the incubation continued for another 40 minutes. The spectrophotomertric reaction was quenched by the addition of 2.5N acetic acid and the absorbance at 492 nm was measured. The IC50 value was determined from semi logarithmic plots of enzyme inhibition versus inhibitor concentration, with a curve generated using a 4-parameter fit.

[1] = test system: P. aeruginosa strain CL5701; assay: Synergy assay (checkerboard) with imipenem; format: cell-based, Pseudomonas aeruginosa; settings: summary statement; strain/antibiotic not given
Excerpt: The assay determines the concentration of a β-lactamase inhibitor required to reduce the MIC of a β-lactam antibiotic by one-half, one-quarter, one-eighth, one-sixteenth and one-thirty-second against strains of bacteria normally resistant to the antibiotic in question. This is accomplished by titrating the BLI in a serial dilution across a microtiter plate while at the same time titrating the antibiotic in a serial dilution down the microtiter plate and then inoculating the plate with the bacterial strain in question and allowing the bacteria to grow up overnight. Each well in this microplate checkerboard contains a different combination of concentrations of the inhibitor and the antibiotic allowing a full determination of any synergy between the two.
• CL 5701 (Pseudomonas aeruginosa; Pa AmpC)/Imipenem • MB 2646 (Enterobacter cloacae; P99)/Ceftazidime • CL 5513 (Klebsiella pneumoniae; SHV-5)/Ceftazidime • CL 6188 (Acinetobacter baumanii; Oxa40)/Imipenem • CL 6569 (Klebsiella pneumoniae; KPC-2)/Imipenem • CL 5761 (Klebsiella pneumoniae; KPC-3)/Imipenem • CLB 21648 (Acinetobacter baumanii; Ab AmpC)/Imipenem
• 1. All wells in rows B-H of MIC 2000 microtiter plates are filled with 100 μL of MHBII+1% DMSO (dimethyl sulfoxide). • 2. All wells in row A of MIC 2000 microtiter plates are filled with 100 μL of 2× MHBII+2% DMSO. • 3. 100 μL of 4× the final antibiotic concentration wanted is added to well A1 of the MIC 2000 plates. • 4. 100 μL of 2× the final antibiotic concentration wanted is added to wells A2-A12 of the MIC 2000 plates. • 5. 100 μL is serially diluted from row A to row G of each MIC 2000 plate. • 6. 100 μL is removed from each well in row G of each MIC 2000 plate. • 7. 100 μL of 2× the final inhibitor concentration wanted (in MHBII+1% DMSO) is added to all wells in column 1 of the microtiter plates. • 8. 100 μL is serially diluted from column 1 to column 11 of each MIC 2000 plate. • 9. 100 μL is removed from each well in column 11 of each MIC 2000 plate. • 10. Plates are then inoculated with an overnight growth (in TSB) of the strain to be tested using an MIC 2000 inoculator. • 11. Plates are left at 37° C. for about 20 hours and scored for growth by eye.
Synergy may be expressed as a ratio of the minimum inhibitory concentration (MIC) of an antibiotic tested in the absence of a β-lactamase inhibitor to the MIC of the same antibiotic tested in the presence of the β-lactamase inhibitor. […] Alternatively, the synergy effect may be expressed as a factor, again, utilizing a concentration of the BLI to lower the MIC of the antibiotic. Thus, if the MIC of the antibiotic is 20 μg/mL and a 1.5 μM concentration of BLI lowers the MIC to 5 μg/mL, the synergy effect is four fold or “4× synergy” at 1.5 μM of BLI.
Representative compounds of the present invention display a synergy effect. For example, the compounds of Examples 1 to 20 were determined to have 2× synergy concentrations in a range of from about 100 μM or less.

Row | SMILES | IC50 (AmpC (P. aeruginosa.)) | 2× synergy concentrations [1]
1 | O=C(N[C@H]1CCCNCC1)N1CC[C@@H]2[C@H]1C(=O)N2S(=O)(=O)O [Example 1] | ≤ 25 µM | ≤ 100 µM
2 | O=C(NC1CCCCCC1)N1CC[C@@H]2[C@H]1C(=O)N2S(=O)(=O)O [Example 3] | – | ≤ 100 µM
3 | O=C1NCCCC[C@@H]1NC(=O)N1CC[C@@H]2[C@H]1C(=O)N2S(=O)(=O)O [Example 5, (1S,5R)-7-Oxo-2-({[(3S)-2-oxoazepan-3-yl]amino}carbonyl)-2,6-diazabicyclo[3.2.0]heptane-6-sulfonic acid] | ≤ 25 µM | ≤ 100 µM
4 | NCCN1CCC[C@H](NC(=O)N2CC[C@@H]3[C@H]2C(=O)N3S(=O)(=O)O)CC1 [Example 13, (1S,5R)-2-({[(4S)-1-(2-Aminoethyl)azepan-4-yl]amino}carbonyl)-7-oxo-2,6-diazabicyclo-[3.2.0]heptane-6-sulfonic acid] | ≤ 25 µM | ≤ 100 µM
5 | O=C(N[C@H]1CNCCOC1)N1CC[C@@H]2[C@H]1C(=O)N2S(=O)(=O)O [Example 8, (1S,5R)-2-{[(6S)-1,4-Oxazepan-6-ylamino]carbonyl}-7-oxo-2,6-diazabicyclo[3.2.0]heptane-6-sulfonic acid] | ≤ 25 µM | ≤ 100 µM
6 | O=C(NC1CCCCNCCC1)N1CC[C@@H]2[C@H]1C(=O)N2S(=O)(=O)O (single isomer, unassigned; isomer a) [Example 19] | ≤ 25 µM | ≤ 100 µM
7 | O=C(N[C@H]1CCCN(CCCO)CC1)N1CC[C@@H]2[C@H]1C(=O)N2S(=O)(=O)O [Example 12, (1S,5R)-2-({[(4S)-1-(3-Hydroxypropyl)azepan-4-yl]amino}carbonyl)-7-oxo-2,6-diazabicyclo-[3.2.0]heptane-6-sulfonic acid] | ≤ 25 µM | ≤ 100 µM
8 | O=C(NC1CCCCNCC1)N1CC[C@@H]2[C@H]1C(=O)N2S(=O)(=O)O (single isomer, unassigned; isomer a) [Example 17] | – | ≤ 100 µM
9 | CN1CCC[C@H](NC(=O)N2CC[C@@H]3[C@H]2C(=O)N3S(=O)(=O)O)CC1 [Example 9, (1S,5R)-2-({[(4S)-1-Methylazepan-4-yl]amino}carbonyl)-7-oxo-2,6-diazabicyclo[3.2.0]heptane-6-sulfonic acid] | – | ≤ 100 µM
10 | O=C(NC1CCCNCCC1)N1CC[C@@H]2[C@H]1C(=O)N2S(=O)(=O)O [Example 16, (1S,5R)-2-[(Azocan-5-ylamino)carbonyl]-7-oxo-2,6-diazabicyclo-[3.2.0]-heptane-6-sulfonic acid] | ≤ 25 µM | ≤ 100 µM
11 | O=C(N[C@H]1CCCCNC1)N1CC[C@@H]2[C@H]1C(=O)N2S(=O)(=O)O [Example 4, (1S,5R)-2-{[(3S)-Azepan-3-ylamino]carbonyl}-7-oxo-2,6-diazabicyclo[3.2.0]-heptane-6-sulfonic acid] | ≤ 25 µM | ≤ 100 µM
12 | C[N+]1(C)CCC[C@H](NC(=O)N2CC[C@@H]3[C@H]2C(=O)N3S(=O)(=O)[O-])CC1 [Example 10, (1S,5R)-2-({[(4S)-1,1-Dimethylazepanium-4-yl]amino}carbonyl)-7-oxo-2,6-diazabicyclo[3.2.0]heptane-6-sulfonate] | ≤ 25 µM | ≤ 100 µM
13 | O=C(N[C@@H]1CCCNCC1)N1CC[C@@H]2[C@H]1C(=O)N2S(=O)(=O)O [Example 2] | ≤ 25 µM | ≤ 100 µM
14 | O=C(NC1CNCCNC1)N1CC[C@@H]2[C@H]1C(=O)N2S(=O)(=O)O [Example 6, (1S,5R)-2-[(1,4-Diazepan-6-ylamino)carbonyl]-7-oxo-2,6-diazabicyclo[3.2.0]heptane-6-sulfonic acid] | ≤ 25 µM | ≤ 100 µM
15 | O=C(N[C@@H]1CNCCOC1)N1CC[C@@H]2[C@H]1C(=O)N2S(=O)(=O)O [Example 7, (1S,5R)-2-{[(6R)-1,4-Oxazepan-6-ylamino]carbonyl}-7-oxo-2,6-diazabicyclo[3.2.0]heptane-6-sulfonic acid] | ≤ 25 µM | ≤ 100 µM
16 | O=C(N[C@H]1CCCN(CCO)CC1)N1CC[C@@H]2[C@H]1C(=O)N2S(=O)(=O)O [Example 11, (1S,5R)-2-({[(4S)-1-(2-Hydroxyethyl)azepan-4-yl]amino}carbonyl)-7-oxo-2,6-diazabicyclo[3.2.0]heptane-6-sulfonic acid] | – | ≤ 100 µM
17 | O=C(NC1CCCCNCC1)N1CC[C@@H]2[C@H]1C(=O)N2S(=O)(=O)O (single isomer, unassigned; isomer b) [Example 18] | – | ≤ 100 µM
18 | CN(C)CCN1CCC[C@H](NC(=O)N2CC[C@@H]3[C@H]2C(=O)N3S(=O)(=O)O)CC1 [Example 14, (1S,5R)-2-[({(4S)-1-[2-(Dimethylamino)ethyl]azepan-4-yl}amino)carbonyl]-7-oxo-2,6-diazabicyclo[3.2.0]heptane-6-sulfonic acid] | ≤ 25 µM | ≤ 100 µM
19 | CC1(C)CCC(NC(=O)N2CC[C@@H]3[C@H]2C(=O)N3S(=O)(=O)O)CC(C)(C)N1 (stereo partly drawn) [Example 15, (1S,5R)-7-oxo-2-{[(2,2,7,7-Tetramethylazepan-4-yl)amino]carbonyl}-2,6-diazabicyclo-[3.2.0]-heptane-6-sulfonic acid] | ≤ 25 µM | ≤ 100 µM
